Source: the supplement of paper PMC4604168 (melanoma cell lines)
The other results are listed elsewhere or left out. Single values are uncertain, as repeats are few or missing.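 Cells were imaged in 1,536-well plates, and nuclei stained with an antibody against cleaved PARP were counted against all DNA-stained nuclei to give the apoptosis fraction. Screening doses were chosen to leave most cells alive, and resting and induced cleaved-PARP levels differ strongly between cell lines.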

Legend:
Assay in all cases: cleaved PARP positive nuclei fraction relative to DMSO control; melanoma cells; higher = more apoptosis
Conditions in all cases: library dose: low library concentration; 72 h
[1] = tested on: 501Mel
[2] = tested on: A101D
[3] = tested on: A2058
[4] = tested on: A375
[5] = tested on: C32
[6] = tested on: CBRC008 (line from a melanoma biopsy)
[7] = tested on: CBRC014 (line from a melanoma biopsy)
[8] = tested on: CBRC016 (line from a melanoma biopsy)
[9] = tested on: CBRC017 (line from a melanoma biopsy)
[10] = tested on: CBRC034 (line from a melanoma biopsy)
[11] = tested on: COLO792
[12] = tested on: COLO800
[13] = tested on: COLO829
[14] = tested on: G361
[15] = tested on: IPC-298
[16] = tested on: IST-MEL1
[17] = tested on: LB2518-MEL
[18] = tested on: LOXIMVI
[19] = tested on: MEL-HO

SMILES	cleaved PARP positive nuclei fraction [1] [%]	cleaved PARP positive nuclei fraction [2] [%]	cleaved PARP positive nuclei fraction [3] [%]	cleaved PARP positive nuclei fraction [4] [%]	cleaved PARP positive nuclei fraction [5] [%]	cleaved PARP positive nuclei fraction [6] [%]	cleaved PARP positive nuclei fraction [7] [%]	cleaved PARP positive nuclei fraction [8] [%]	cleaved PARP positive nuclei fraction [9] [%]	cleaved PARP positive nuclei fraction [10] [%]	cleaved PARP positive nuclei fraction [11] [%]	cleaved PARP positive nuclei fraction [12] [%]	cleaved PARP positive nuclei fraction [13] [%]	cleaved PARP positive nuclei fraction [14] [%]	cleaved PARP positive nuclei fraction [15] [%]	cleaved PARP positive nuclei fraction [16] [%]	cleaved PARP positive nuclei fraction [17] [%]	cleaved PARP positive nuclei fraction [18] [%]	cleaved PARP positive nuclei fraction [19] [%]
CS(=O)(=O)c1ccc(C(=O)Nc2ccc(Cl)c(-c3ccccn3)c2)c(Cl)c1 [vismodegib] + Cc1cc(Nc2cc(N3CCN(C)CC3)nc(/C=C/c3ccccc3)n2)n[nH]1 [ENMD2076] (first compound 1 µM, partner dose 0.04 µM)	88.6	91.7	78.1	64.2	81.3	56	78.7	85.5	89.5	43.3	61.4	214	163	53.7	130	119	47	195	252
COc1ccc(C2=N[C@@H](c3ccc(Cl)cc3)[C@@H](c3ccc(Cl)cc3)N2C(=O)N2CCNC(=O)C2)c(OC(C)C)c1 [Nutlin-3] + CN1CCN(c2ccc3nc(-c4c(N)c5c(F)cccc5[nH]c4=O)[nH]c3c2)CC1 [Dovitinib] (first compound 0.1 µM, partner dose 0.1 µM)	134	215	40.3	259	146	77.6	88.8	107	98.4	176	49.7	67.2	64.3	90.1	73.1	67.2	204	79.4	32.7
CC1(C)CCC(c2ccc(Cl)cc2)=C(CN2CCN(c3ccc(C(=O)NS(=O)(=O)c4ccc(N[C@H](CCN5CCOCC5)CSc5ccccc5)c(S(=O)(=O)C(F)(F)F)c4)cc3)CC2)C1 + Cc1cn(-c2cc(NC(=O)c3ccc(C)c(Nc4nccc(-c5cccnc5)n4)c3)cc(C(F)(F)F)c2)cn1 [nilotinib] (first compound 0.4 µM, partner dose 0.2 µM)	193	87.5	263	316	283	1370	449	666	277	129	315	241	98.2	238	161	139	209	108	123
NC(=O)c1ccc(N(C(N)=O)c2c(F)cccc2F)nc1-c1ccc(F)cc1F + CNC(=O)c1cc(Oc2ccc(NC(=O)Nc3ccc(Cl)c(C(F)(F)F)c3)cc2)ccn1 [sorafenib] (first compound 0.4 µM, partner dose 0.4 µM)	71.7	45.1	114	243	78.6	142	188	41.9	124	128	83.4	87.2	105	40.5	94.1	128	77.5	68.2	65.3
CN(c1ncccc1CNc1nc(Nc2ccc3c(c2)CC(=O)N3)ncc1C(F)(F)F)S(C)(=O)=O + CN1CCN(c2ccc3nc(-c4c(N)c5c(F)cccc5[nH]c4=O)[nH]c3c2)CC1 [Dovitinib] (first compound 0.08 µM, partner dose 0.1 µM)	144	95.5	131	118	93.2	75.9	113	99.9	82.4	84.8	133	122	49.8	116	87.5	102	93.3	128	113
CCN(CC)CCNC(=O)c1c(C)[nH]c(/C=C2\C(=O)Nc3ccc(F)cc32)c1C [sunitinib] + OCc1c[nH]c2ccccc12 [Indole-3-carbinol] (first compound 0.4 µM, partner dose 0.8 µM)	143	155	81.4	128	123	98.9	90.7	73.7	105	145	77	106	105	90	86.6	158	97.1	209	169
Cn1cnc2c(F)c(Nc3ccc(Br)cc3Cl)c(C(=O)NOCCO)cc21 [selumetinib] + CN1CCN(c2ccc3nc(-c4c(N)c5c(F)cccc5[nH]c4=O)[nH]c3c2)CC1 [Dovitinib] (first compound 0.015 µM, partner dose 0.1 µM)	2160	43.7	181	244	87.8	127	93.4	67.2	133	123	108	95.8	130	111	69.2	65	372	77.1	492
Cn1sc(=O)n(Cc2ccccc2)c1=O + Cc1cc(Nc2cc(N3CCN(C)CC3)nc(/C=C/c3ccccc3)n2)n[nH]1 [ENMD2076] (first compound 0.4 µM, partner dose 0.04 µM)	39.4	49.1	168	36	76.8	50.9	91.1	94.5	261	107	56	114	131	103	56.9	170	109	108	71.3
Cn1sc(=O)n(Cc2ccccc2)c1=O + Cn1c(=O)n(-c2ccc(C(C)(C)C#N)cc2)c2c3cc(-c4cnc5ccccc5c4)ccc3ncc21 [NVP-BEZ235] (first compound 0.4 µM, partner dose 0.004 µM)	90.8	101	89.3	164	78.9	62	94.4	93.3	113	29.8	66.9	128	27.4	165	179	45.8	109	73.5	178
Cn1cnc2c(F)c(Nc3ccc(Br)cc3Cl)c(C(=O)NOCCO)cc21 [selumetinib] + OCc1c[nH]c2ccccc12 [Indole-3-carbinol] (first compound 0.015 µM, partner dose 0.8 µM)	884	64.4	129	103	90.8	122	81.9	222	140	292	117	157	68.3	122	197	67.4	110	34.2	141
CC(=O)O[C@@]12CO[C@@H]1C[C@H](O)[C@@]1(C)C(=O)[C@H](O)C3=C(C)[C@@H](OC(=O)[C@H](O)[C@@H](NC(=O)OC(C)(C)C)c4ccccc4)C[C@@](O)([C@@H](OC(=O)c4ccccc4)[C@H]21)C3(C)C [Docetaxel] + Nc1ncn([C@H]2C[C@H](O)[C@@H](CO)O2)c(=O)n1 [decitabine] (first compound 0.0001 µM, partner dose 0.1 µM)	275	81.2	3330	1240	167	259	168	148	228	137	760	168	172	721	150	126	231	143	70.6
CC1(C)CCC(c2ccc(Cl)cc2)=C(CN2CCN(c3ccc(C(=O)NS(=O)(=O)c4ccc(N[C@H](CCN5CCOCC5)CSc5ccccc5)c(S(=O)(=O)C(F)(F)F)c4)cc3)CC2)C1 + C[C@@H](Oc1cc(-c2cnn(C3CCNCC3)c2)cnc1N)c1c(Cl)ccc(F)c1Cl [Crizotinib] (first compound 0.4 µM, partner dose 0.2 µM)	61.6	178	68.4	339	159	414	523	777	348	299	621	61	112	223	85.5	232	244	183	158
Cn1sc(=O)n(Cc2ccccc2)c1=O + CC(=O)O[C@@]12CO[C@@H]1C[C@H](O)[C@@]1(C)C(=O)[C@H](O)C3=C(C)[C@@H](OC(=O)[C@H](O)[C@@H](NC(=O)OC(C)(C)C)c4ccccc4)C[C@@](O)([C@@H](OC(=O)c4ccccc4)[C@H]21)C3(C)C [Docetaxel] (first compound 0.4 µM, partner dose 0.0001 µM)	80.6	67.1	1780	2100	133	244	219	268	160	128	398	337	275	573	207	174	134	116	192
C[C@]1(O)C[C@@H](c2nc(-c3ccc4ccc(-c5ccccc5)nc4c3)c3c(N)nccn32)C1 + Cc1nc(Nc2ncc(C(=O)Nc3c(C)cccc3Cl)s2)cc(N2CCN(CCO)CC2)n1 [dasatanib] (first compound 0.4 µM, partner dose 0.004 µM)	176	205	180	565	105	98.7	119	106	184	105	240	316	78.7	70.5	161	151	40.7	100	141
COc1ccc(C2=N[C@@H](c3ccc(Cl)cc3)[C@@H](c3ccc(Cl)cc3)N2C(=O)N2CCNC(=O)C2)c(OC(C)C)c1 [Nutlin-3] + Cn1c(=O)n(-c2ccc(C(C)(C)C#N)cc2)c2c3cc(-c4cnc5ccccc5c4)ccc3ncc21 [NVP-BEZ235] (first compound 0.1 µM, partner dose 0.004 µM)	104	101	132	92.2	170	156	104	118	128	77.9	149	25.9	74.5	99.8	45.2	71.9	102	66.5	26.5
C[C@]1(O)C[C@@H](c2nc(-c3ccc4ccc(-c5ccccc5)nc4c3)c3c(N)nccn32)C1 + CN1CCN(c2ccc3nc(-c4c(N)c5c(F)cccc5[nH]c4=O)[nH]c3c2)CC1 [Dovitinib] (first compound 0.4 µM, partner dose 0.1 µM)	544	130	124	304	71.4	128	110	36.9	95.3	75	82.3	90.2	93.9	81.5	46.9	61.3	160	60.1	61.8
C[C@]1(O)C[C@@H](c2nc(-c3ccc4ccc(-c5ccccc5)nc4c3)c3c(N)nccn32)C1 + CCN(CC)CCNC(=O)c1c(C)[nH]c(/C=C2\C(=O)Nc3ccc(F)cc32)c1C [sunitinib] (first compound 0.4 µM, partner dose 0.4 µM)	103	102	65.1	264	80	135	121	47.9	138	145	103	271	60.5	123	47.4	167	93	94.9	72.4

Quoted from the listing.
Value for C[C@]1(O)C[C@@H](c2nc(-c3ccc4ccc(-c5ccccc5)nc4c3)c3c(N)nccn32)C1 + CN1CCN(c2ccc3nc(-c4c(N)c5c(F)cccc5[nH]c4=O)[nH]c3c2)CC1 [Dovitinib] (first compound 0.4 µM, partner dose 0.1 µM) under cleaved PARP positive nuclei fraction [8] [%]: 36.9
Value for Cn1sc(=O)n(Cc2ccccc2)c1=O + Cc1cc(Nc2cc(N3CCN(C)CC3)nc(/C=C/c3ccccc3)n2)n[nH]1 [ENMD2076] (first compound 0.4 µM, partner dose 0.04 µM) under cleaved PARP positive nuclei fraction [8] [%]: 94.5
